In article PMC11607329:
No constants are given. Whether binding was seen depends on the method and setting. Binding seen in cells or lysates may run through a third protein. Some results given as binding are weak or reduced against the parent protein; the word gives no strength.

T1: Lipocalin-2 (mouse (endogenous in mouse VSMCs)) (UniProt P11672)
T1 sequence: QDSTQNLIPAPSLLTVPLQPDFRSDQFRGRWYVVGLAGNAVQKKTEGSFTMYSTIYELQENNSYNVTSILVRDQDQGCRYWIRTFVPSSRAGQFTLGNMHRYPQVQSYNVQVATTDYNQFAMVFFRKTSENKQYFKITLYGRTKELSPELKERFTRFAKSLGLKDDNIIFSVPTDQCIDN

T2: nuclear receptor coactivator 4 (mouse (endogenous in mouse VSMCs)) (UniProt Q5U4H9)
T2 sequence: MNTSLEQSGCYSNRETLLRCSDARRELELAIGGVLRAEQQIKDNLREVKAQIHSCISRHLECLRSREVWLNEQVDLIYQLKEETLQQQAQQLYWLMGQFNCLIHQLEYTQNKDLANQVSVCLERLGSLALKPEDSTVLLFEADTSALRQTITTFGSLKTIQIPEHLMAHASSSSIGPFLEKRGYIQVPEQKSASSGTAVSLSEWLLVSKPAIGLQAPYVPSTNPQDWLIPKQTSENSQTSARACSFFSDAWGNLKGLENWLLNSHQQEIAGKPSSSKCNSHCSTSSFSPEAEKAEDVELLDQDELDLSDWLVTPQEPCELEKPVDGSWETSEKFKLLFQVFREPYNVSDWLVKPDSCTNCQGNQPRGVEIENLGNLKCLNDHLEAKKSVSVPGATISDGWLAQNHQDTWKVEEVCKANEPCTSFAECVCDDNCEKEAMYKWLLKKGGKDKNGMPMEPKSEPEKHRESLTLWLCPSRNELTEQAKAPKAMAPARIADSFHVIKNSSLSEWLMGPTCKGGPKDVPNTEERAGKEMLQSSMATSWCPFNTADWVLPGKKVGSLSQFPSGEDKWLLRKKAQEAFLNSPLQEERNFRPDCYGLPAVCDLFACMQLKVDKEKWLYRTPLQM


What was measured:
[1] = biological target: T1, Lipocalin-2 (mouse (endogenous in mouse VSMCs)); test: co-IP; VSMCs total cell lysates (IP lysis buffer with 1% PMSF), pre-cleared with protein A/G agarose, incubated overnight at 4 °C with anti-LCN2 or anti-NCOA4 primary antibody or control IgG, collected on protein A/G agarose for 5 h at 4 °C, Western blot
[2] = biological target: T2, nuclear receptor coactivator 4 (mouse (endogenous in mouse VSMCs)); test: as above

binding [1]	binding [2]	Binder
binds	–	nuclear receptor coactivator 4 (protein, UniProt Q5U4H9 1-625) MNTSLEQSGCYSNRETLLRCSDARRELELAIGGVLRAEQQIKDNLREVKAQIHSCISRHLECLRSREVWLNEQVDLIYQLKEETLQQQAQQLYWLMGQFNCLIHQLEYTQNKDLANQVSVCLERLGSLALKPEDSTVLLFEADTSALRQTITTFGSLKTIQIPEHLMAHASSSSIGPFLEKRGYIQVPEQKSASSGTAVSLSEWLLVSKPAIGLQAPYVPSTNPQDWLIPKQTSENSQTSARACSFFSDAWGNLKGLENWLLNSHQQEIAGKPSSSKCNSHCSTSSFSPEAEKAEDVELLDQDELDLSDWLVTPQEPCELEKPVDGSWETSEKFKLLFQVFREPYNVSDWLVKPDSCTNCQGNQPRGVEIENLGNLKCLNDHLEAKKSVSVPGATISDGWLAQNHQDTWKVEEVCKANEPCTSFAECVCDDNCEKEAMYKWLLKKGGKDKNGMPMEPKSEPEKHRESLTLWLCPSRNELTEQAKAPKAMAPARIADSFHVIKNSSLSEWLMGPTCKGGPKDVPNTEERAGKEMLQSSMATSWCPFNTADWVLPGKKVGSLSQFPSGEDKWLLRKKAQEAFLNSPLQEERNFRPDCYGLPAVCDLFACMQLKVDKEKWLYRTPLQM
–	binds	Lipocalin-2 (protein, UniProt P11672 21-200) QDSTQNLIPAPSLLTVPLQPDFRSDQFRGRWYVVGLAGNAVQKKTEGSFTMYSTIYELQENNSYNVTSILVRDQDQGCRYWIRTFVPSSRAGQFTLGNMHRYPQVQSYNVQVATTDYNQFAMVFFRKTSENKQYFKITLYGRTKELSPELKERFTRFAKSLGLKDDNIIFSVPTDQCIDN
